Out of some 390,000 compounds screened, about 60 (0.02%) were called active. Inconclusive results, whose numbers are uncertain, are shown with a selection of clear calls. Rule as the data show it: active = activity change below about -50%; inconclusive = between about -30% and that limit; inactive = weaker than that.
The molecules below were run against Mucolipin-1 (Homo sapiens) (UniProt Q9GZU1) (assay: qHTS for Inhibitors of the Human Mucolipin Transient Receptor Potential 1 (TRPML1)). Settings: TRPML1-inducible cells, Ca2+ dye fluorescence, FDSS; active compounds read low; inhibition of EC80 agonist-evoked calcium signal.
Outline: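 TRPML1-DL cells, Tet-induced overnight (~16 h, 37 °C) at 1,500 cells/well, were loaded with Ca8 no-wash dye plus quencher for 45-90 min at room temperature. Compounds were pinned during FDSS kinetic reading; agonist 54-4 at EC80 (4 uM final) then added.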
% is scaled to controls: 0 for no effect and ±100 for the full control effect.
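Also: stimulus is agonist 54-4 at its EC80 concentration.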

The chains behind the UniProt entries cited, without tags or fusion partners.
UniProt Q9GZU1, whole entry, looked up: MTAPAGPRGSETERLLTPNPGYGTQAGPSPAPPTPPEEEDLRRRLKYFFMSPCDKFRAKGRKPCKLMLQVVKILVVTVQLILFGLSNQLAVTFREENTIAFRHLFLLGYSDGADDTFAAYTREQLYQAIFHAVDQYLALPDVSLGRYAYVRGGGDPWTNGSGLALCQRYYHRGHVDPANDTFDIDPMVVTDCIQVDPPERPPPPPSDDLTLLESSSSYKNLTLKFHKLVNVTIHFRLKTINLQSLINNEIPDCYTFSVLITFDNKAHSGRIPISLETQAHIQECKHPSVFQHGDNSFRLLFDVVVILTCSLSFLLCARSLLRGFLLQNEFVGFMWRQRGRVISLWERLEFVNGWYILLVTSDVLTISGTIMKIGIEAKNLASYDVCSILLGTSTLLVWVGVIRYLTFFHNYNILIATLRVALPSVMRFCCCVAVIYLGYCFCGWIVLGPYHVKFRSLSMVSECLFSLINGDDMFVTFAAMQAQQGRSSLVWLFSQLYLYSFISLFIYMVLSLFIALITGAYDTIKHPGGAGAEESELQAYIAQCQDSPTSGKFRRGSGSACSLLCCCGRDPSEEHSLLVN

| Compound | activity change, negative = inhibition |
| --- | --- |
| COc1cc(Br)c(/C=C/c2ccc3cccc(O)c3n2)cc1OC | inactive: -5.43% |
| CN1CCN(c2cc(=O)n(C3CCCCC3)c(=O)[nH]2)CC1 | inactive: 13.7% |
| Cc1cccc(N2CCN(C(=O)c3cnn(-c4ccc(F)cc4F)c3C3CCN(C(=O)OC(C)(C)C)CC3)CC2)c1C | active: -62.8% |
| Cc1ccccc1Nc1nc(NCc2ccco2)c2ccccc2n1 | inactive: 22.8% |
| O=C(CN1C(=O)/C(=C\C=C\c2ccccc2)SC1=S)Nc1ccc(F)cc1 | inconclusive: -35.8% |
| Cc1cc(N/N=C/c2ccccc2)nc(N2CCOCC2)n1 | inactive: -24.1% |
| CN(CC(O)Cn1cnc2c1c(=O)n(C)c(=O)n2C)c1ccccc1 (centres undefined) | inconclusive: -35% |
| Cc1cccc(C(=O)n2nc(-c3cccnc3)nc2NCc2ccc(F)cc2)c1 | inactive: 20.9% |
| CCOC(=O)c1ccc(NC(=O)C2CCCO2)cc1 (centres undefined) | inconclusive: -40.8% |
| COCCn1c(SCC(=O)NC(=O)NCc2ccccc2)nc2ccccc21 | inconclusive: -31.9% |
| COc1ccc(CCNC(=O)CSCc2ccc(F)cc2)cc1OC | inconclusive: -30.2% |
| COC(=O)N/N=C\c1cc2c(cc1Br)OCO2 | inconclusive: -36.9% |
| Cc1ccc(Cc2c(-c3ccc(C)cc3)nc3ccc(Br)cn23)cc1 | inconclusive: -41.9% |
| O=C(CCOc1ccccc1)OCC(=O)c1cc2ccccc2o1 | inconclusive: -31.1% |
| CCNC(=O)c1cc(Cl)ccc1OC | inconclusive: -32.9% |
| CC(=O)Nc1ccc(S(=O)(=O)NC2(C(F)(F)F)C(=O)Nc3c2c(=O)[nH]c(=O)n3Cc2ccccc2)cc1 (centres undefined) | inconclusive: -32.2% |
| O=C(O)c1ccc2nc(-c3ccccc3)sc2c1 | inconclusive: -30.9% |
| O=C(NCC1CCCO1)c1ccc([N+](=O)[O-])s1 (centres undefined) | inconclusive: -38.5% |
| CCc1ccc2occ(CC(=O)Nc3ccc(OC)c(Cl)c3)c2c1 | inactive: 12.2% |
| Cn1nnnc1SCC(=O)N1CCN(C(c2ccccc2)c2ccccc2)CC1 | inconclusive: -44.7% |
| O=C(Cn1c[n+](CC(=O)c2ccc([N+](=O)[O-])cc2)cn1)c1ccc([N+](=O)[O-])cc1 | inconclusive: -31.6% |
| O=C(Cn1nc(C(F)(F)F)c2c1CCCC2)N1CCOCC1 | inconclusive: -37.7% |
| COCCCNC(=O)C1CCCN(S(=O)(=O)c2ccc3c(c2)oc(=O)n3C)C1 (centres undefined) | inconclusive: -31% |
| CN(CCO)C(=O)c1nc[nH]c1C(=O)N(C)Cc1ccccc1 | inconclusive: -30.1% |
| O=C(CCCn1c(=S)[nH]c2ccccc2c1=O)NCCSCc1ccccc1 | inconclusive: -44.2% |
| Cc1ccccc1NC(=S)N(CCN1CCCCCC1)Cc1cccs1 | inconclusive: -31.2% |
| COc1cc2c(cc1OC)C(C)N(C(C)=O)CC2 (centres undefined) | inconclusive: -36.9% |

| Compound | activity change, negative = inhibition |
| --- | --- |
| CN(C)c1ccc(CNC(=O)c2ccc(NC(=O)c3nsc4ccccc34)cc2)cc1 | inconclusive: -34.4% |
| Cc1cccc(NC(=O)CSc2nnnn2C)n1 | inconclusive: -36.9% |
| Cc1ccc(N2CCN(S(=O)(=O)N3CCCCCC3)CC2)cc1Cl | inconclusive: -30.8% |
| O=C(NCCc1c[nH]c2ccccc12)C(=O)NCC1OCCCN1S(=O)(=O)c1ccccc1 (centres undefined) | inconclusive: -30.9% |
| COc1ccc(NC(=O)C2CCC(CNS(=O)(=O)c3csc(C(N)=O)c3)CC2)cc1OC (centres undefined) | inconclusive: -41.2% |
| O=C(NCCS(=O)(=O)N1CCN(c2cccc(Cl)c2)CC1)c1ccc2c(c1)OCO2 | inactive: 25.4% |
| CCOC(=O)N1CCN(C(=O)c2ccc(N(Cc3ccc(C)cc3)S(C)(=O)=O)cc2)CC1 | inconclusive: -33.7% |
| Oc1ccccc1CNc1cnc2ccccc2c1 | inactive: -14% |
| CCc1ccc(NC(=O)CN2CCCN(S(=O)(=O)c3ccc(F)cc3)CC2)cc1 | inconclusive: -32.1% |
| CC(C)Oc1ccc(CNC(=O)CN2C(=O)c3cccnc3Oc3ccc(Cl)cc32)cc1 | inconclusive: -34.3% |
| S=C(NCCc1ccccc1)N/N=C/c1ccccc1Cl | inactive: 4.07% |
| COc1ccc(-c2[nH]c(-c3ccc(C)cc3)nc2SCC(=O)NC2CCCC2)cc1 | inactive: -16.6% |
| N#CC(=C(c1ccccc1)c1ccccc1)c1ccccc1 | inconclusive: -30.8% |
| C[C@H](CO)N1C[C@H](C)[C@@H](CN(C)C(=O)NC2CCCCC2)Oc2ccc(NC(=O)Cn3cnnn3)cc2C1=O | inconclusive: -34.1% |
| NC(=O)c1nn(Cc2ccccc2)c(=O)c2ccccc12 | inactive: -11% |
| Cc1cccnc1NC(=O)CCC(=O)c1cccs1 | inconclusive: -32.4% |
| O=C(c1ccccc1)c1ccc2c(c1)OCCOCCOCCO2 | inconclusive: -33.8% |
| Cc1n[nH]c(C)c1S(=O)(=O)N1CCCC(C(=O)N2CCc3ccccc32)C1 (centres undefined) | inconclusive: -41.7% |
| COc1ccc2c(c1)-c1nc(NC(=O)c3cc(Cl)ccc3OC)sc1CC2 | inconclusive: -30.8% |
| CN1CCC(N(C)S(=O)(=O)c2ccc(NC(=O)COc3ccc(F)cc3Cl)cc2)CC1 | inactive: 27.4% |
| C#CCOCCOCCOCCNc1nc(N2CCN(C(=O)CCCCCCCCCCNC(=O)[C@H](CO)n3cc(CCCSC)nn3)CC2)nc(N2CCN(C(=O)CCCCCCCCCCNC(=O)[C@H](CCCN=C(N)N)n3cc(C[C@@H](C)CC)nn3)CC2)n1 | inactive: 20.9% |
| O=C(CSc1cccc[n+]1[O-])NCCCc1ccccc1 | inconclusive: -43.2% |
| Cc1ccc(N2C(=O)C(CC(=O)Nc3ccc(F)cc3)N(Cc3ccc4c(c3)OCO4)C2=O)cc1 (centres undefined) | inconclusive: -37.7% |
| CCOC(=O)c1ccc(NC(=O)CN(C)S(=O)(=O)c2ccc(Br)s2)cc1 | inconclusive: -35.2% |
| O=C(COc1ccc(Cl)cc1)NNC(=O)CSc1nncs1 | inconclusive: -34.6% |
| Cn1nc(-c2ccccc2F)c2cc(C(=O)N3CCN(c4ccccc4F)CC3)sc21 | inactive: 0.562% |
| Cc1cc(-c2nn(-c3ccccc3F)cc2CN2CCC(O)CC2)c(C)s1 | inactive: -4.91% |

Quoted from the listing.
activity change, negative = inhibition with `COc1ccc(CCNC(=O)CSCc2ccc(F)cc2)cc1OC` reads inconclusive: -30.2%
activity change, negative = inhibition with `O=C(COc1ccc(Cl)cc1)NNC(=O)CSc1nncs1` reads inconclusive: -34.6%
activity change, negative = inhibition with `Cn1nc(-c2ccccc2F)c2cc(C(=O)N3CCN(c4ccccc4F)CC3)sc21` reads inactive: 0.562%
